Measured values taken from patent US20220281980A1.
Results are given in words; binding and its absence hold for the method and conditions named. Some binding calls cover weakened binding; strength is not graded here. For some of these results: Sequences can lack the tags named with a protein.

Sequences of proteins named here, by UniProt entry; tags and fusion partners are left off. A change or cut given only in a name is not applied to a line headed by its entry. Residues count along the entry.
UniProt Q29980: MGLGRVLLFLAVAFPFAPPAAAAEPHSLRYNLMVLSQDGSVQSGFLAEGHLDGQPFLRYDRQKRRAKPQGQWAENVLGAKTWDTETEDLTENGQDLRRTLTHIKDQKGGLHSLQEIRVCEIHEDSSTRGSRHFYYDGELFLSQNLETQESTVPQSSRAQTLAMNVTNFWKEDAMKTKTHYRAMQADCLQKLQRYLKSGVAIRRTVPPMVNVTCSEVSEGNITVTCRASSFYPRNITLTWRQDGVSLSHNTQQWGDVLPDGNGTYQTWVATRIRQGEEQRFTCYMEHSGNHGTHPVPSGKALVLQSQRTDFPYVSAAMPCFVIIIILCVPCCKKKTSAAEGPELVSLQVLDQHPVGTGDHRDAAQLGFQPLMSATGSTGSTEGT
UniProt Q29983, residues 24-383: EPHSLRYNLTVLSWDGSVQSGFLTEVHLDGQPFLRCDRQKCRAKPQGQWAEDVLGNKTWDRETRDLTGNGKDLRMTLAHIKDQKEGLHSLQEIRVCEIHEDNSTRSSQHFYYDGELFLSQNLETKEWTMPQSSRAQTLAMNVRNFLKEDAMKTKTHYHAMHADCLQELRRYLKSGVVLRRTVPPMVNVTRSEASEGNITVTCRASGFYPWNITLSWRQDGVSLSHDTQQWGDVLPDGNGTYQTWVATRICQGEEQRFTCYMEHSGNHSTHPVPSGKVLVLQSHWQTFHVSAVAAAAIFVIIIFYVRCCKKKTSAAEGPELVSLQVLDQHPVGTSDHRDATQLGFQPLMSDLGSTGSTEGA

How the values were obtained:
[1] = target: human MICB expressed on transduced cells (human) (UniProt Q29980); experiment: flow cytometry (GMFI, FACSCalibur), CHO cells with MICB; untransfected CHOs at 0 at 670 nM
[2] = target: human MICA/B endogenously expressed on HeLa cells (MICA allele *008) (human) (UniProt Q29983); experiment: flow cytometry (GMFI, FACSCalibur), HeLa cells (upright triangles)
[3] = target: human MICA/B endogenously expressed on HeLa cells (MICA allele *008) (human) (UniProt Q29983); experiment: flow cytometry (GMFI, FACSCalibur), HeLa cells
[4] = target: recombinant soluble human MICA*008 antigen (human) (UniProt Q29983); experiment: SPR (Biacore 3000), antibody captured on Protein G chip, MICA-008 antigen injected
[5] = target: human MICA*002 expressed on CHO cells (human) (UniProt Q29983); experiment: flow cytometry (GMFI, FACSCalibur), CHO cells with MICA*002; untransfected CHOs at 0 at 670 nM
[6] = target: recombinant soluble human MICA*009 antigen (human) (UniProt Q29983); experiment: SPR (Biacore 3000), antibody captured on Protein G chip, MICA-009 antigen injected
[7] = target: human MICA/B endogenously expressed on RPMI-8226 cells (human) (UniProt Q29983); experiment: flow cytometry (GMFI, FACSCalibur), RPMI-8226 cells
[8] = target: human MICA*004 expressed on CHO cells (human) (UniProt Q29983); experiment: flow cytometry (GMFI, FACSCalibur), CHO cells with MICA*004; untransfected CHOs at 0 at 670 nM
[9] = target: human MICA*010 expressed on CHO cells (human) (UniProt Q29983); experiment: flow cytometry (GMFI, FACSCalibur), CHO cells with MICA*010; untransfected CHOs at 0 at 670 nM
[10] = target: human MICA/B endogenously expressed on 786-O cells (MICA allele *008) (human) (UniProt Q29983); experiment: flow cytometry (GMFI, FACSCalibur), 786-O cells (cross markers)
[11] = target: human MICA*009 expressed on CHO cells (human) (UniProt Q29983); experiment: flow cytometry (GMFI, FACSCalibur), CHO cells with MICA*009; untransfected CHOs at 0 at 670 nM
[12] = target: recombinant soluble human MICA*002 antigen (human) (UniProt Q29983); experiment: SPR (Biacore 3000), antibody captured on Protein G chip, MICA-002 antigen injected
[13] = target: recombinant soluble human MICA*004 antigen (human) (UniProt Q29983); experiment: SPR (Biacore 3000), antibody captured on Protein G chip, MICA-004 antigen injected
[14] = target: human MICA/B endogenously expressed on 786-O cells (MICA allele *008) (human) (UniProt Q29983); experiment: flow cytometry (GMFI, FACSCalibur), 786-O cells
[15] = target: human MICA*008 expressed on CHO cells (human) (UniProt Q29983); experiment: flow cytometry (GMFI, FACSCalibur), CHO cells with MICA*008; untransfected CHOs at 0 at 670 nM
[16] = target: human MICB expressed on transduced cells (human) (UniProt Q29980); experiment: Scatchard analysis, 125I-MICA.36 on transduced CHO cells
[17] = target: T1, MICA-ECD displayed on yeast (C-terminal myc-Aga1 fusion) (human) (UniProt Q29983); experiment: yeast surface display of MICA-ECD, flow cytometry
T1 sequence: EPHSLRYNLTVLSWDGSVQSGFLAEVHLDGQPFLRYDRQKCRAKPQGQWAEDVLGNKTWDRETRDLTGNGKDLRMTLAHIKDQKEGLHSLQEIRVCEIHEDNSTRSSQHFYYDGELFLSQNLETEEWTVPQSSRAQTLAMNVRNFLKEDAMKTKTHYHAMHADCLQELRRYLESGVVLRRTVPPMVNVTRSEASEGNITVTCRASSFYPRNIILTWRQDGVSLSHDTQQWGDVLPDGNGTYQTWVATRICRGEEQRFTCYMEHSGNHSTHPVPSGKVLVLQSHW

[18] = target: human MICB expressed on transduced cells (human) (UniProt Q29980); experiment: flow cytometry, transfected CHO cells
[19] = target: human MICB expressed on transduced cells (human) (UniProt Q29980); experiment: flow cytometry (GMFI, FACSCalibur), CHO cells with MICB

Measured: binding

B1: 16A5 (antibody, V domains shown)
VH: QVQLVESGGDVVQPGRSLRLSCAASGFTFSNYNIHWVRQAPGKGLEWVAVIRYDGINKYYADSVKGRFIISRDNSKNTLYLQMNSLRAEDTAVYYCASGPPDAFNIWGQGTMVTVSS
VL: AIQLTQSPSSLSASVGDRVTITCRASQGISSALAWYQQKPGKVPKSLIYDASSLESGVPSRFSGSGSGTDFTLTISSLQPEDFATYYCQQFNSYPITFGQGTRLEIK
not listed: [16] | [17] | [18] | [19]
binds: all other assays above

B2: MICA.36 (antibody, V domains shown)
VH: QVQLVESGGGVVQPGRSLRLSCAASGFTFSNYAMHWVRQAPGEGLEWVALIWYDGSNKFYGDSVKGRFTISRDNSKNTLYLQMNSLSAEDTAVYYCAREGSGHYWGQGTLVTVSS
VL: AIQLTQSPSSLSASVGDRVTITCRASQGISSALAWYQQKPGKVPKSLIYDASSLESGVPSRFSGSGSGTDFTLTISSLQPEDFATYYCQQFNSYPITFGQGTRLEIK
binds: [16] | [17]

B3: 19G6 (antibody, V domains shown)
VH: QVQLVESGGGVVQPGRSLRLSCAASGFTFSNYAMHWVRQAPGEGLEWVALIWYDGSNKFYGDSVKGRFTISRDNSKNTLYLQMNSLSAEDTAVYYCAREGSGHYWGQGTLVTVSS
VL: AIQLTQSPSSLSASVGDRVTITCRASQGISSALAWYQQKPGKVPKSLIYDASSLESGVPSRFSGSGSGTDFTLTISSLQPEDFATYYCQQFNSYPITFGQGTRLEIK
binds: [3] | [18] | [7] | [19] | [14]
